PubChem BioAssay AID504774, Drosophila RNAi Screening Center, 2011
In all, the deposit lists about 23,000 reagents; shown is a random part of those with a known target gene and a result. 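Values are quantile-normalised luminescence on an arbitrary scale; higher means more cells surviving MMS.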 The numbers tell different reagents against one gene apart. Names joined by + are all predicted targets of the reagent. Not all columns of the deposit are shown. Reagent sequences are not shown.

- Aim: 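Knock-downs that shift viability of MMS-exposed cells relative to untreated ones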 (primary screen)
- System: Drosophila Kc167 cells
- Reagents: long dsRNA against Drosophila genes, about 0.25 µg dsRNA per well
- Timing: about 6 days: 3 days knock-down, then 3 days with or without MMS
- Conditions: methyl methanesulphonate 0.004% (w/v) for 3 days after knock-down
- Read-out: 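Viability in wells given MMS, read as ATP luminescence, normalised by quantiles plate by plate and averaged across replicates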
- Scale: mean viability with MMS: higher = more surviving cells after MMS

{"Gene": "CG11369", "reagent no.": 1, "mean viability with MMS": 3.49e6}
{"Gene": "Hel89B", "reagent no.": 1, "mean viability with MMS": 3.70e6}
{"Gene": "Hel89B", "reagent no.": 2, "mean viability with MMS": 3.48e6}
{"Gene": "Ahcy", "reagent no.": 1, "mean viability with MMS": 3.46e6}
{"Gene": "DCTN1-p150", "reagent no.": 1, "mean viability with MMS": 3.44e6}
{"Gene": "Cks85A", "reagent no.": 1, "mean viability with MMS": 3.70e6}
{"Gene": "CG4763", "reagent no.": 1, "mean viability with MMS": 3.56e6}
{"Gene": "CG4763", "reagent no.": 2, "mean viability with MMS": 3.41e6}
{"Gene": "CG15499 (retired record)", "reagent no.": 1, "mean viability with MMS": 3.70e6}
{"Gene": "RhoGAP19D", "reagent no.": 1, "mean viability with MMS": 3.64e6}
{"Gene": "RhoGAP19D", "reagent no.": 2, "mean viability with MMS": 3.65e6}
{"Gene": "Jhbp6", "reagent no.": 1, "mean viability with MMS": 3.37e6}
{"Gene": "CG31781 (retired record)", "reagent no.": 1, "mean viability with MMS": 3.56e6}
{"Gene": "CG31781 (retired record)", "reagent no.": 2, "mean viability with MMS": 3.52e6}
{"Gene": "toc", "reagent no.": 1, "mean viability with MMS": 3.56e6}
{"Gene": "toc", "reagent no.": 2, "mean viability with MMS": 3.40e6}
{"Gene": "toc", "reagent no.": 3, "mean viability with MMS": 3.52e6}
{"Gene": "Naa80", "reagent no.": 1, "mean viability with MMS": 3.52e6}
{"Gene": "Vps33B", "reagent no.": 1, "mean viability with MMS": 3.43e6}
{"Gene": "CG9743", "reagent no.": 1, "mean viability with MMS": 3.44e6}
{"Gene": "CG8993", "reagent no.": 1, "mean viability with MMS": 3.61e6}
{"Gene": "rha", "reagent no.": 1, "mean viability with MMS": 3.42e6}
{"Gene": "CG15461", "reagent no.": 1, "mean viability with MMS": 3.66e6}
{"Gene": "Dop1R1", "reagent no.": 1, "mean viability with MMS": 3.43e6}
{"Gene": "Dop1R1", "reagent no.": 2, "mean viability with MMS": 3.66e6}
{"Gene": "CG5080", "reagent no.": 1, "mean viability with MMS": 3.53e6}
{"Gene": "CG5916", "reagent no.": 1, "mean viability with MMS": 3.59e6}
{"Gene": "CG3982", "reagent no.": 1, "mean viability with MMS": 2.99e6}
{"Gene": "CG3982", "reagent no.": 2, "mean viability with MMS": 3.65e6}
{"Gene": "CG11929", "reagent no.": 1, "mean viability with MMS": 3.47e6}
{"Gene": "CG11095", "reagent no.": 1, "mean viability with MMS": 3.70e6}
{"Gene": "CG16772", "reagent no.": 1, "mean viability with MMS": 3.79e6}
{"Gene": "Vha68-1", "reagent no.": 1, "mean viability with MMS": 3.72e6}
{"Gene": "CG8031", "reagent no.": 1, "mean viability with MMS": 3.59e6}
{"Gene": "CG8329", "reagent no.": 1, "mean viability with MMS": 3.57e6}
{"Gene": "rtv", "reagent no.": 1, "mean viability with MMS": 3.64e6}
{"Gene": "Mo25", "reagent no.": 1, "mean viability with MMS": 3.34e6}
{"Gene": "Cyp1", "reagent no.": 1, "mean viability with MMS": 3.54e6}
{"Gene": "Spn42Db", "reagent no.": 1, "mean viability with MMS": 3.49e6}
{"Gene": "CG12910", "reagent no.": 1, "mean viability with MMS": 3.50e6}
{"Gene": "CG15814", "reagent no.": 1, "mean viability with MMS": 3.55e6}
{"Gene": "Jhbp15", "reagent no.": 1, "mean viability with MMS": 3.51e6}
{"Gene": "Cyp6t2Psi", "reagent no.": 1, "mean viability with MMS": 3.54e6}
{"Gene": "CG18631 (retired record)", "reagent no.": 1, "mean viability with MMS": 3.54e6}
{"Gene": "pre-mod(mdg4)-U + mod(mdg4)", "reagent no.": 1, "mean viability with MMS": 3.53e6}

5 successive records already listed, for reference:
{"Gene": "CG3982", "reagent no.": 1, "mean viability with MMS": 2.99e6}
{"Gene": "CG3982", "reagent no.": 2, "mean viability with MMS": 3.65e6}
{"Gene": "CG11929", "reagent no.": 1, "mean viability with MMS": 3.47e6}
{"Gene": "CG11095", "reagent no.": 1, "mean viability with MMS": 3.70e6}
{"Gene": "CG16772", "reagent no.": 1, "mean viability with MMS": 3.79e6}
